Results as given in PMC12140422.
These are yes or no findings as the source states them, for the method shown. In cells and extracts the contact can be indirect. Some binding calls cover weakened binding; strength is not graded here. Where a sequence is shown, tags or fusion partners need not be part of it.

Protein sequences, listed by entry. Tags and fused reporters are not part of them.
UniProt Q13283: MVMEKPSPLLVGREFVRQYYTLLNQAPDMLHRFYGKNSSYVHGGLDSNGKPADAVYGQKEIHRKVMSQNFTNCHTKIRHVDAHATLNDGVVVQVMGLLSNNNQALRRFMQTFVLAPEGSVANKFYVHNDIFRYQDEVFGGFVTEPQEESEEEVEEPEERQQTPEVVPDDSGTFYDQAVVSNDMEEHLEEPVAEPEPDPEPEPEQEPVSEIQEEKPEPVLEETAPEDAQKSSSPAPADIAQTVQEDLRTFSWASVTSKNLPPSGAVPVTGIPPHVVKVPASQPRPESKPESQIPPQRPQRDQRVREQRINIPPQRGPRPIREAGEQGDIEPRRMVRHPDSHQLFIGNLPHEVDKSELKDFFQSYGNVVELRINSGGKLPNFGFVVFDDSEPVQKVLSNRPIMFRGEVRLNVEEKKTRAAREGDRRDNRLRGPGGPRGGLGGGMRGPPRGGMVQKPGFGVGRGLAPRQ

Biological target: T1, Flag-MOV10 (full length human MOV10) (human) (UniProt Q9HCE1)
T1 sequence: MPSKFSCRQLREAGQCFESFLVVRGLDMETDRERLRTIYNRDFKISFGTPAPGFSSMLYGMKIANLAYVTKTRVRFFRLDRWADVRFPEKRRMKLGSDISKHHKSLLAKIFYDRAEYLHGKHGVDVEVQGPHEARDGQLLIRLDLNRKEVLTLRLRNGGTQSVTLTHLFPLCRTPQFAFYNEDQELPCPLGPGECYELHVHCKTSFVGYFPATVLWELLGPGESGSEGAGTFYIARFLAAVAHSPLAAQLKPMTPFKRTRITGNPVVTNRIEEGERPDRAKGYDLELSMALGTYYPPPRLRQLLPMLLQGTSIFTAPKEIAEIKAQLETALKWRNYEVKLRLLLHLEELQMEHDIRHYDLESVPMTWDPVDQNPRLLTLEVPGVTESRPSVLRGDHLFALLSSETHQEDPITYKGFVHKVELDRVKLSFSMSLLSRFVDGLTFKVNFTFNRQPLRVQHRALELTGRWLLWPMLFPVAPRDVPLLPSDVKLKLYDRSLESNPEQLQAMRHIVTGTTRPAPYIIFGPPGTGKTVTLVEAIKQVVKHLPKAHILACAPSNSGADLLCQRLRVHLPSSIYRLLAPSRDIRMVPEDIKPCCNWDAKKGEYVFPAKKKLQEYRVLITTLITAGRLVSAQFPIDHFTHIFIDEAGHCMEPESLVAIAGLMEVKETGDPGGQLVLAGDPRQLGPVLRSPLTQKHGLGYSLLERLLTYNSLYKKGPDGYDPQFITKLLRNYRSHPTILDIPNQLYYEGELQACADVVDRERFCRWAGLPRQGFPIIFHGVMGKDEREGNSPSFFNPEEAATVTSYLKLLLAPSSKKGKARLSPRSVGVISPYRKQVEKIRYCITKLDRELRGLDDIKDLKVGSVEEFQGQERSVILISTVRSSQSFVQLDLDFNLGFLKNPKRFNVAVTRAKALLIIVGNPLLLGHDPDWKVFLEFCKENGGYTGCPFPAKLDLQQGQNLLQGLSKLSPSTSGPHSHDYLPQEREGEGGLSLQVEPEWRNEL
Test: co-IP; anti-Flag IP from HEK293T cells overexpressing Flag-MOV10, its truncations or MOV10/Caprin-1 chimeras; immunoblot for endogenous G3BP1, Flag and Actin

binding: binds
Substance: Ras-GTPase-activating protein SH3-domain-binding protein 1 (G3BP1) (from UniProt Q13283 1-466)
